# Measured values: the supplement of paper PMC5770031
# Counter-ions that a name gives are not always drawn. The list shows a part of the results. Repeats in this data set agree poorly, so a single value says little.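 Flies heterozygous for the ATM8 allele over a balancer chromosome carrying normal ATM were mated with each other on treated food. Parents laid eggs for 5–6 days and the young then developed for about 12 days, so both parents and larvae ate the compound. The read-out is the share of all emerged adults that carry two ATM8 copies, compared with 2% DMSO control vials. The paper called compounds neutral at 10–20% such offspring, harmful below 10%, and helpful above 20%.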 Numbered stars: 1 amine (or outer) side, 2 acyl side, 3 side chain; on linkers, the order of the positions; unused ones are H or OH. Square brackets hold non-standard residues; d marks the D form. Peptide text beside a SMILES is read from it. * marks the point of attachment. ξ: configuration not given here. X3 = O=C([C@H](N[*:1])C1CCC(O)CC1)[*:2]; X5 = O=C(C(N[*:1])C1CCC(O)C(Cl)C1)[*:2]; X4 = O=C(C(N[*:1])C1CCC(O)CC1)[*:2]; aThr = C[C@H](O)[C@H](N)C(=O)O; dOrn = NCCC[C@@H](N)C(=O)O; X2 = CCC/C=C\C=C/C(=O)*; ξN = NC(=O)CC(N)C(=O)O
# System: Drosophila melanogaster ATM8 (temperature-sensitive ATM allele)
# Experiment: fraction of eclosed F1 progeny that are homozygous ATM8 (rescue of developmental lethality); higher = more rescue of ATM8 developmental lethality; extreme values may be limits of the assay
# Settings: compound concentration applied to food 0.2 mM; 21 °C
row,SMILES,fraction of eclosed F1 progeny that are homozygous ATM8
1,CCCC(C)C1(CC)C(=O)NC(=S)NC1=O (stereo unspecified),0.215
2,C=CC(C1=CC(=O)C(OC)=CC1=O)c1ccccc1 (stereo unspecified),0.341
3,Clc1ccc(C(Cn2ccnc2)OCc2ccsc2Cl)c(Cl)c1 (stereo unspecified),0.0333
4,C[C@](N)(Cc1ccc(O)c(O)c1)C(=O)O,0.224
5,COc1cc(C(=O)NCc2ccc(OCCN(C)C)cc2)cc(OC)c1OC,0.027
6,O=C(O)C1CC([C@@H]2CCCCN2)CN2CCCCC12 (stereo partly specified),0.2
7,C[C@@H]1CC[C@H]2[C@](C)(CO)[C@@H](O)CC[C@]2(C)[C@@]12CC[C@@](CO)(CCO)O2,0.125
8,O=c1cc(CO)occ1O,0.178
9,CN1CC(=O)N2[C@H](c3ccc4c(c3)OCO4)c3[nH]c4ccccc4c3C[C@@H]2C1=O,0
10,C1CCC(C(CC2CCCCN2)C2CCCCC2)CC1 (stereo unspecified),0.0256
11,CC(C)c1c(O)c(-c2cc3c(c(C(C)C)c2O)CCC2C(C)(C)CCC[C@]32C)cc2c1CCC1C(C)(C)CCC[C@]21C (stereo partly specified),0.176
12,CCC/C=C\C=C/C(=O)N[C@@H](CC(N)=O)C(=O)NC(CC(N)=O)C(=O)N[C@@H](C(=O)N[C@H](CCCN)C(=O)N[C@@H](C(=O)N[C@@H](C(=O)N[C@@H](C(=O)N[C@H](C(=O)N[C@@H](Cc1ccccc1)C(=O)N[C@H](CCCN)C(=O)NC(C(=O)N[C@H](C(=O)NC(C(=O)NCC(=O)N[C@@H](CC(C)C)C(=O)N[C@H](C)C(=O)NC(C(=O)O)C1CCC(O)C(Cl)C1)C1CCC(O)CC1)[C@H](C)O)C1CCC(O)CC1)[C@H](C)O)C1CCC(O)CC1)C1CCC(O)CC1)[C@H](C)O)C1CCC(O)CC1 (stereo partly specified) [RAMOPLANIN [A2 shown; 2mM]] (X2-N[ξN][X3][dOrn][dT][X3][X3][aThr]F[dOrn][X4][aThr][X4]GL[dA][X5]-OH),0.0571
13,CCc1nc(N)nc(N)c1-c1ccc(Cl)cc1,0.2
14,CC(=O)[C@@]1(O)CC[C@H]2[C@@H]3C[C@H](C)C4=CC(=O)C=C[C@]4(C)[C@@]3(F)[C@@H](O)C[C@@]21C,0
15,O=C(O)c1cn(C2CC2)c2cc(N3CCNCC3)c(F)cc2c1=O,0.1
16,O=C1C=C2C=C[C@@H]3C[C@@]2(O1)[C@H]1CCCCN31,0.2
17,CCOc1nc2cccc(C(=O)OCc3oc(=O)oc3C)c2n1Cc1ccc(-c2ccccc2-c2noc(=O)[nH]2)cc1,0.364
18,C#CCN[C@@H]1CCc2ccccc21,0.111
19,Cn1c(=O)[nH]c2ncn(C)c2c1=O,0.275
20,COc1ccc2c(c1)OCC(Cc1ccc(OC)c(O)c1)C2=O (stereo unspecified),0.175
21,COc1cc(O)cc(O)c1C(=O)c1ccccc1,0.0976
22,CN1CCC[C@@H]1Cc1c[nH]c2ccc(CCS(=O)(=O)c3ccccc3)cc12,0.329
23,CC(C)[N+](C)(CCOC(=O)C1c2ccccc2Oc2ccccc21)C(C)C,0.184
24,CN(C)CCC=C1c2ccccc2COc2ccccc21,0.0667

row,SMILES,fraction of eclosed F1 progeny that are homozygous ATM8
1,Nc1ccccc1S(N)(=O)=O,0.0926
2,O=Cc1ccccc1O[C@@H]1O[C@H](CO)[C@@H](O)[C@H](O)[C@H]1O,0.0455
3,OCc1cccnc1,0.128
4,NNCc1ccccc1,0.0385
5,CC(C)=CC1C(C(=O)OCc2cccc(Oc3ccccc3)c2)C1(C)C (stereo unspecified),0.278
6,CC1=CC(=O)C(C(C)C)=CC1=O,0.257
7,CCOc1ccc2ccccc2c1C(=O)N[C@@H]1C(=O)N2[C@@H]1SC(C)(C)[C@@H]2C(=O)O,0.143
8,NC(=O)C[S@@+]([O-])C(c1ccccc1)c1ccccc1,0.214
9,COc1ccc(-c2oc3cc(OC)c(OC)c(OC)c3c(=O)c2OC)cc1,0.156
10,NCCCNCCCCNCCCN,0.154
11,CC1=NN(c2ccccc2)C(=O)C1,0.0571
12,Cn1cnc2c1c(=O)[nH]c(=O)n2C,0.191
13,CCC[C@@H]1C[C@@H](C(=O)N[C@@H]([C@H]2O[C@H](SC)[C@H](O)[C@@H](O)[C@H]2O)[C@H](C)Cl)N(C)C1,0.069
14,O=C(O)CCNC(=O)c1ccccc1,0.167
15,COc1ccc(-c2coc3cc(OC)ccc3c2=O)cc1,0.0761
16,CC1(C)C(=O)C=C[C@]2(C)[C@H]3CC[C@@]4(C)[C@H](c5ccoc5)OC(=O)[C@H]5O[C@]54[C@]3(C)[C@H](O)C[C@@H]12,0.188
17,C[n+]1c2cc(N)ccc2cc2ccc(N)cc21,0.13
18,CC1(C)O[C@H]2CC(=O)OC[C@]23[C@H]2CC[C@@]4(C)[C@H](c5ccoc5)OC(=O)[C@H]5O[C@]54[C@]2(C)C(=O)C[C@@H]13,0.19
19,CN[C@@H]1[C@@H](O[C@H]2O[C@H](CO)[C@@H](N)[C@H](O)[C@H]2O)OC2C[C@@H](N)[C@@H](O[C@H]3[C@H](O)[C@@H](O)[C@H](N)C[C@@H]3N)OC2[C@@H]1O (stereo partly specified),0.278
20,CC12CCC(CC1=O)C2(C)C (stereo unspecified),0.162
21,CC(=O)Oc1cc(OC(C)=O)c2c(c1)O[C@H](c1ccc(OC(C)=O)c(OC(C)=O)c1)[C@@H](OC(C)=O)C2,0.421
22,COc1ccc(O)cc1,0.0714
23,CC(=O)NC(Cc1ccccc1)C(=O)O (stereo unspecified),0.232
24,CCCCCCCCCCCCCCCCCCCCCCO,0.0222

# Some of the entries so far, tab-delimited:
row	SMILES	fraction of eclosed F1 progeny that are homozygous ATM8
4	NNCc1ccccc1	0.0385
5	CC(C)=CC1C(C(=O)OCc2cccc(Oc3ccccc3)c2)C1(C)C (stereo unspecified)	0.278
6	CC1=CC(=O)C(C(C)C)=CC1=O	0.257
7	CCOc1ccc2ccccc2c1C(=O)N[C@@H]1C(=O)N2[C@@H]1SC(C)(C)[C@@H]2C(=O)O	0.143
8	NC(=O)C[S@@+]([O-])C(c1ccccc1)c1ccccc1	0.214
9	COc1ccc(-c2oc3cc(OC)c(OC)c(OC)c3c(=O)c2OC)cc1	0.156
10	NCCCNCCCCNCCCN	0.154
11	CC1=NN(c2ccccc2)C(=O)C1	0.0571
12	Cn1cnc2c1c(=O)[nH]c(=O)n2C	0.191
13	CCC[C@@H]1C[C@@H](C(=O)N[C@@H]([C@H]2O[C@H](SC)[C@H](O)[C@@H](O)[C@H]2O)[C@H](C)Cl)N(C)C1	0.069
14	O=C(O)CCNC(=O)c1ccccc1	0.167
15	COc1ccc(-c2coc3cc(OC)ccc3c2=O)cc1	0.0761
16	CC1(C)C(=O)C=C[C@]2(C)[C@H]3CC[C@@]4(C)[C@H](c5ccoc5)OC(=O)[C@H]5O[C@]54[C@]3(C)[C@H](O)C[C@@H]12	0.188
17	C[n+]1c2cc(N)ccc2cc2ccc(N)cc21	0.13
18	CC1(C)O[C@H]2CC(=O)OC[C@]23[C@H]2CC[C@@]4(C)[C@H](c5ccoc5)OC(=O)[C@H]5O[C@]54[C@]2(C)C(=O)C[C@@H]13	0.19
19	CN[C@@H]1[C@@H](O[C@H]2O[C@H](CO)[C@@H](N)[C@H](O)[C@H]2O)OC2C[C@@H](N)[C@@H](O[C@H]3[C@H](O)[C@@H](O)[C@H](N)C[C@@H]3N)OC2[C@@H]1O (stereo partly specified)	0.278
20	CC12CCC(CC1=O)C2(C)C (stereo unspecified)	0.162
21	CC(=O)Oc1cc(OC(C)=O)c2c(c1)O[C@H](c1ccc(OC(C)=O)c(OC(C)=O)c1)[C@@H](OC(C)=O)C2	0.421

# Additional records:

row,SMILES,fraction of eclosed F1 progeny that are homozygous ATM8
1,NCCCC(=O)O [gamma-AMINOBUTYRIC ACID HYDROCHLORIDE],0.289
2,CCCCCCOC(=O)NC(=N)c1ccc(NCc2nc3cc(C(=O)N(CCC(=O)OCC)c4ccccn4)ccc3n2C)cc1,0.23
3,CN[C@@H]1[C@H](O)[C@H](NC)[C@H]2O[C@@]3(O)C(=O)C[C@@H](C)O[C@H]3O[C@@H]2[C@H]1O,0.111
4,CC(C)=CCC[C@@H](C)CC=O,0.158
5,CN[C@H](CC(=O)O)C(=O)O,0.245
6,Cc1onc(-c2ccccc2Cl)c1C(=O)N[C@@H]1C(=O)N2[C@@H]1SC(C)(C)[C@@H]2C(=O)O,0.0588
7,CN(C)CCOC(c1ccccc1)c1ccccc1,0.0577
8,COc1ccc2[nH]c([S+]([O-])Cc3ncc(C)c(OC)c3C)nc2n1 (stereo unspecified),0.0811
9,CC(=O)[C@H]1CC[C@H]2[C@@H]3CCC4=CC(=O)CC[C@]4(C)[C@H]3CC[C@]12C,0.107
10,CN(C)CC/C=C1/c2ccccc2Sc2ccc(Cl)cc21,0.0917
11,CC(=O)O[C@H]1C[C@@H](OC(C)=O)C(C)(C)[C@@H]2C[C@@H](OC(C)=O)[C@]3(C)[C@H](CC[C@@]4(C)[C@H](c5ccoc5)OC(=O)[C@H]5O[C@@]534)[C@@]12C,0.14
12,CC[C@@]1(O)C(=O)OCc2c1cc1n(c2=O)Cc2cc3ccccc3nc2-1,0.162
13,CCN(CC)C(=O)c1cccnc1,0.118
14,CCN(CC)C(=O)c1cccc(C)c1,0.0806
15,CCCN(CCC)S(=O)(=O)c1ccc(C(=O)O)cc1,0.279
16,O=C1C[C@@H]2OCC=C3CN4CC[C@]56c7ccccc7N1[C@H]5[C@H]2[C@H]3C[C@H]46,0.0345
17,CN(C)CCN(Cc1ccccc1)c1ccccn1,0.179
18,C=CC1=C(C)c2cc3[nH]c(cc4nc(cc5[nH]c(cc1n2)c(C)c5CCC(=O)O)C(CCC(=O)O)=C4C)c(C)c3C=C,0.19
19,C=C(C)CCCC(C)CCOC(C)=O (stereo unspecified),0.151
20,CC(O)C(=O)O.N (stereo unspecified),0.133
21,CN1C(=O)CC(c2ccccc2)C1=O (stereo unspecified),0.0263
22,CC(=O)O[C@@]12CO[C@@H]1C[C@H](O)[C@@]1(C)C(=O)[C@H](O)C3=C(C)[C@@H](OC(=O)[C@H](O)[C@@H](NC(=O)OC(C)(C)C)c4ccccc4)C[C@@](O)([C@@H](OC(=O)c4ccccc4)[C@H]21)C3(C)C,0.129
23,Clc1ccc(CSC(Cn2ccnc2)c2ccc(Cl)cc2Cl)cc1 (stereo unspecified),0.188
24,Nc1ncnc2c1ncn2[C@@H]1O[C@H](CO)[C@@H](O)[C@H]1O,0

row,SMILES,fraction of eclosed F1 progeny that are homozygous ATM8
1,COc1ccc2c(c1)OCC(Cc1ccc(O)c(OC)c1)C2=O (stereo unspecified),0.107
2,C[n+]1cc2c3c(ccc2c2ccc4cc5c(cc4c21)OCO5)OCO3,0.235
3,COc1cc(O)c(C(C)=O)c(O)c1,0.121
4,Cc1cc(=O)oc2cc(O)c(O)cc12,0.157
5,NCCc1cc(O)c(O)cc1O,0.259
6,N[C@@H](Cc1cc(I)c(Oc2cc(I)c(O)c(I)c2)c(I)c1)C(=O)O,0.0435
7,CC(C)=CCC[C@]1(C)C=Cc2c(O)c3c(c(CC=C(C)C)c2O1)O[C@]12C(=C[C@@H]4C[C@H]1C(C)(C)O[C@@]2(C/C=C(/C)C(=O)O)C4=O)C3=O,0.2
8,N=C(N)NC(=O)Cc1c(Cl)cccc1Cl,0
9,COc1cc(O)c(C(=O)c2ccccc2)cc1S(=O)(=O)O,0.0312
10,CNCc1ccccc1,0.0577
11,O=C(O)CCCCCCCCCCCC[C@@H]1C=CCC1,0.257
12,COc1cc(OC)c2c(=O)c(O)c(-c3ccc(OC)c(OC)c3)oc2c1,0.128
13,C=C(C)c1cc2cc(C(C)=O)c(O)cc2o1,0.0508
14,CO[C@H]1[C@@H](O)[C@@H](C)O[C@@H](O[C@H]2CC[C@]3(C)[C@H]4CC[C@]5(C)[C@@H](C6=CC(=O)OC6)CC[C@]5(O)[C@@H]4CC[C@]3(O)C2)[C@@H]1O,0.143
15,CCCCCCCCCCCCCCCC(=O)OC[C@@H](NC(=O)C(Cl)Cl)[C@H](O)c1ccc([N+](=O)[O-])cc1,0.0357
16,O=C(O)/C=C/c1ccc(O)c(O)c1,0.118
17,Clc1ccc(Cn2c(CN3CCCC3)nc3ccccc32)cc1,0.179
18,COc1cc2nc(N(C)CCCNC(=O)C3CCCO3)nc(N)c2cc1OC (stereo unspecified),0.0714
19,C[N+](C)(C)CCCCCCCCCC[N+](C)(C)C,0.174
20,c1ccc2nc(N3CCNCC3)ccc2c1,0
21,C[N+]1(C)[C@@H]2CC[C@H]1C[C@@H](OC(=O)C(CO)c1ccccc1)C2 (stereo partly specified),0
22,O=C1c2ccccc2C(=O)C1c1ccc(Cl)cc1,0.273
23,C#C[C@]1(OC(C)=O)CC[C@H]2[C@@H]3CCC4=CC(=NO)CC[C@@H]4[C@H]3CC[C@@]21CC (mixture of isomers),0.0682
24,Clc1ccc(CO/N=C(\Cn2ccnc2)c2ccc(Cl)cc2Cl)c(Cl)c1,0.0294
